{"source": "PubChem BioAssay AID1224830, NIAID, 2016", "screen": "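Regulators of TLR4 signalling towards TNF-alpha in macrophage-like cells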 (primary screen)", "cell system": "human THP-1 monocytic leukaemia cells, TNF dual-luciferase reporter clone, PMA-differentiated to macrophage-like cells", "reagent": "siRNA pool against human genes, 50 nM", "time to read-out": "LPS for 4 h, given about 3 days after siRNA transfection", "conditions": "bacterial LPS (TLR4 ligand), 10 ng/ml", "measurement": "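TNF firefly reporter luminescence divided by renilla, normalised to the plate median, then turned into a robust z-score for each replicate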", "reading the numbers": "TNF reporter robust z-score: higher = stronger TNF reporter response to LPS", "call rule": "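Each well counts as active if its z-score is over 2.8 or under -1.5; controls are left without a call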", "note": "The whole screen tested about 18,000 reagents; below is an unselected part. About 2,900 of all reagents (16%) were called active. 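Calls are made per well; low scores hint the gene aids the LPS response, high scores that it dampens it.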 Entries without a mark were called inactive. Repeated entries: four replicate wells of each siRNA pool. No sequences are given here."}
{"gene knocked down": "IFT22 (intraflagellar transport 22)", "TNF reporter robust z-score": -0.92}
{"gene knocked down": "IFT22 (intraflagellar transport 22)", "TNF reporter robust z-score": 0.14}
{"gene knocked down": "IFT22 (intraflagellar transport 22)", "TNF reporter robust z-score": -0.47}
{"gene knocked down": "IFT22 (intraflagellar transport 22)", "TNF reporter robust z-score": -0.38}
{"gene knocked down": "ATP5IF1 (ATP synthase inhibitory factor subunit 1)", "TNF reporter robust z-score": -0.35}
{"gene knocked down": "ATP5IF1 (ATP synthase inhibitory factor subunit 1)", "TNF reporter robust z-score": 0.49}
{"gene knocked down": "ATP5IF1 (ATP synthase inhibitory factor subunit 1)", "TNF reporter robust z-score": -0.27}
{"gene knocked down": "ATP5IF1 (ATP synthase inhibitory factor subunit 1)", "TNF reporter robust z-score": -0.07}
{"gene knocked down": "BMP7 (bone morphogenetic protein 7)", "TNF reporter robust z-score": "-1.92 (active)"}
{"gene knocked down": "BMP7 (bone morphogenetic protein 7)", "TNF reporter robust z-score": -1.35}
{"gene knocked down": "BMP7 (bone morphogenetic protein 7)", "TNF reporter robust z-score": "-1.81 (active)"}
{"gene knocked down": "BMP7 (bone morphogenetic protein 7)", "TNF reporter robust z-score": "-1.57 (active)"}

The list goes on (2 carried over from the part before).
{"gene knocked down": "BMP7 (bone morphogenetic protein 7)", "TNF reporter robust z-score": "-1.81 (active)"}
{"gene knocked down": "BMP7 (bone morphogenetic protein 7)", "TNF reporter robust z-score": "-1.57 (active)"}
{"gene knocked down": "GMCL1 (germ cell-less 1, spermatogenesis associated)", "TNF reporter robust z-score": -0.99}
{"gene knocked down": "GMCL1 (germ cell-less 1, spermatogenesis associated)", "TNF reporter robust z-score": -1.33}
{"gene knocked down": "GMCL1 (germ cell-less 1, spermatogenesis associated)", "TNF reporter robust z-score": -1.02}
{"gene knocked down": "GMCL1 (germ cell-less 1, spermatogenesis associated)", "TNF reporter robust z-score": -0.31}
{"gene knocked down": "H1-1 (H1.1 linker histone, cluster member)", "TNF reporter robust z-score": 0.72}
{"gene knocked down": "H1-1 (H1.1 linker histone, cluster member)", "TNF reporter robust z-score": 0.56}
{"gene knocked down": "H1-1 (H1.1 linker histone, cluster member)", "TNF reporter robust z-score": 0.31}
{"gene knocked down": "H1-1 (H1.1 linker histone, cluster member)", "TNF reporter robust z-score": 0.86}
